From PMC12097129
No constants are given. Whether binding was seen depends on the method and setting. Binding seen in cells or lysates may run through a third protein. Binding can be weak; no strength is given.

Protein sequences, listed by entry. Tags and fused reporters are not part of them. Lines headed by an entry give the natural chain unless they say otherwise; changes in a name come on top.
UniProt A2A484: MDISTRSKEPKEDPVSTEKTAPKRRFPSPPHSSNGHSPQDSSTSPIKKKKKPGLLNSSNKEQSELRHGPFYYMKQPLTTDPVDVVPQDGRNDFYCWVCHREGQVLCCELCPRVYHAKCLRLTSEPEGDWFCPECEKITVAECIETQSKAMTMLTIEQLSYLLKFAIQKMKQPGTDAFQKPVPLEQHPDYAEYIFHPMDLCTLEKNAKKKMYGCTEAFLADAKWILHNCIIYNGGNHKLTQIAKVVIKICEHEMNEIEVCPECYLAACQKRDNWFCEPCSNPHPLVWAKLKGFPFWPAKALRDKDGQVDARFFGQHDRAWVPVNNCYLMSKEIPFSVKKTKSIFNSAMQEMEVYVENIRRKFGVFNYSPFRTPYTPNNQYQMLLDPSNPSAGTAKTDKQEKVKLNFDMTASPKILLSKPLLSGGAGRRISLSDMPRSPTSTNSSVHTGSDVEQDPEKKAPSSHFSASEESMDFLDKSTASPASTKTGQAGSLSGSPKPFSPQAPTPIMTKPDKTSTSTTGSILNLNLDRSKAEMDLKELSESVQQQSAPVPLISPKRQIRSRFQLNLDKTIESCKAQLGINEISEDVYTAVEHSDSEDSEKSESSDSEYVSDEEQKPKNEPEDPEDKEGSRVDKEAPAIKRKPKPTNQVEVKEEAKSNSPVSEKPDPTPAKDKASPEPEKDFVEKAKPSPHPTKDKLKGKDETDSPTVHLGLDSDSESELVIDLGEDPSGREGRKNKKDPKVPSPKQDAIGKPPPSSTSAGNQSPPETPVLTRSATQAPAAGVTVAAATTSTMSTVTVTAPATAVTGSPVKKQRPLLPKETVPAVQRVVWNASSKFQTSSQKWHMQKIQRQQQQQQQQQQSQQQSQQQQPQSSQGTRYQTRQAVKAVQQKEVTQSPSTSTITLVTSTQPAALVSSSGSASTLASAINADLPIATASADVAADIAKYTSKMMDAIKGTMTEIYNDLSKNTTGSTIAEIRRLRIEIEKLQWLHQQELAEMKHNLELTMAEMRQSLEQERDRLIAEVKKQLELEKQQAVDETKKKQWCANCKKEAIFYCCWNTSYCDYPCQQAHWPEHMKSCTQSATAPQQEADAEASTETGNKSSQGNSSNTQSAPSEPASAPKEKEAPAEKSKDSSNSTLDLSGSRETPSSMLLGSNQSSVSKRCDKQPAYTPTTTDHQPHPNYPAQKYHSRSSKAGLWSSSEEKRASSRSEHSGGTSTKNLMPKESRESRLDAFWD
UniProt Q80U70: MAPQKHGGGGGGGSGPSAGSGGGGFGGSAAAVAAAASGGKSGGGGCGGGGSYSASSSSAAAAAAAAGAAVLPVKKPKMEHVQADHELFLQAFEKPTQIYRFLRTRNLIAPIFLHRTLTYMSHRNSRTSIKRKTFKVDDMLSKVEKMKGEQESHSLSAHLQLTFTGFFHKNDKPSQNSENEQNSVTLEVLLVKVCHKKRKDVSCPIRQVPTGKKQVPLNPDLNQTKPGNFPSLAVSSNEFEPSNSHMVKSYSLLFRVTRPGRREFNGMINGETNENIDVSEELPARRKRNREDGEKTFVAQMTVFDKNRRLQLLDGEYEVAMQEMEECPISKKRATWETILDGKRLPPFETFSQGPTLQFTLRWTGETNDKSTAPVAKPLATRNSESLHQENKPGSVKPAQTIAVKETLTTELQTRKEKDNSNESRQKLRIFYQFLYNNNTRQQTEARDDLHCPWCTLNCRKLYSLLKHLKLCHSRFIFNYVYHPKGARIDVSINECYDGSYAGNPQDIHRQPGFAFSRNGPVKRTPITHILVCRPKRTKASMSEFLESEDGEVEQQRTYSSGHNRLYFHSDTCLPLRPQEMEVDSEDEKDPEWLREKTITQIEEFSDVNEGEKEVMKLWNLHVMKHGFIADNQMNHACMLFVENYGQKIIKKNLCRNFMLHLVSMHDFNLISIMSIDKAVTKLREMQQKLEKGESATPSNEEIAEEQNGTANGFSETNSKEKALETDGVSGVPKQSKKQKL
UniProt Q61188: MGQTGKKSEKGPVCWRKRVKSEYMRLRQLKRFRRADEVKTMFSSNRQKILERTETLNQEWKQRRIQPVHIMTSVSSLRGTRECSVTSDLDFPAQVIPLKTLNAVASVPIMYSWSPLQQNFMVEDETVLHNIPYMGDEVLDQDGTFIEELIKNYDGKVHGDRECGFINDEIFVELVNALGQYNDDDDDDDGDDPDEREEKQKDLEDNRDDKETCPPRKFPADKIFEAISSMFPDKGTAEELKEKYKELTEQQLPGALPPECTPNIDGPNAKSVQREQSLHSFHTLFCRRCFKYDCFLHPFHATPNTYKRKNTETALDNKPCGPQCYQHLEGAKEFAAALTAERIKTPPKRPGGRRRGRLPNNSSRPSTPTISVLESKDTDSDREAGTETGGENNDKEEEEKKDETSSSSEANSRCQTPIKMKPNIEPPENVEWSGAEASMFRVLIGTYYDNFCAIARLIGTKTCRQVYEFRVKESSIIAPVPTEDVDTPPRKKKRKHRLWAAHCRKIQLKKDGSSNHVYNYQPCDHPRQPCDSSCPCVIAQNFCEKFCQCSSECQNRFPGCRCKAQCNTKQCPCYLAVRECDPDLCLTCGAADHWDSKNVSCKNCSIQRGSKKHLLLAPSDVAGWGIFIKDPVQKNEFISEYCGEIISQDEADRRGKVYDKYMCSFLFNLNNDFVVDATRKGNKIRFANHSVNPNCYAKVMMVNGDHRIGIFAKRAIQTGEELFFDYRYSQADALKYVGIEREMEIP
UniProt Q921E6: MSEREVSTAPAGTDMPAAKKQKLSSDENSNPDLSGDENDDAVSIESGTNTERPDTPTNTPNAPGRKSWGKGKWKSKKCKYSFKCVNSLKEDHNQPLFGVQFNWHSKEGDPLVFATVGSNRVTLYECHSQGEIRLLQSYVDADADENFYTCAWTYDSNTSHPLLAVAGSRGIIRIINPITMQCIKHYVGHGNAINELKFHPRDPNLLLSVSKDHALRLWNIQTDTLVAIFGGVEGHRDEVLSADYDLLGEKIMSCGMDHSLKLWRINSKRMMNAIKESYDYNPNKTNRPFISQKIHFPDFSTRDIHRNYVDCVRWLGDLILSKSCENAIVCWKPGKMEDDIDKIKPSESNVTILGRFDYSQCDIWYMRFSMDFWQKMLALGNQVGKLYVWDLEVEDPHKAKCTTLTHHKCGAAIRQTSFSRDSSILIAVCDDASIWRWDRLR

How the values were obtained:
[1] = biological target: Receptor for Activated C-kinase 7 (RACK7), endogenous mouse (mouse (endogenous in neonatal forebrain)) (UniProt A2A484); test: co-IP; IP with 2 ug anti-RACK7 (control IgG beside it) and rProtein A/G beads from dialysed nuclear extract of WT neonatal mouse forebrain; wash buffer 50 mM Tris-HCl pH 7.9, 100 mM KCl, 0.1% NP-40; immunoblot
[2] = biological target: Suppressor of Zeste 12 homolog (SUZ12), endogenous mouse (mouse (endogenous in neonatal forebrain)) (UniProt Q80U70); test: co-IP; IP with anti-SUZ12, anti-EZH2 or anti-EED antibodies from WT neonatal mouse forebrain; immunoblot for RACK7
[3] = biological target: Enhancer of Zeste Homolog 2 (EZH2), endogenous mouse (mouse (endogenous in neonatal forebrain)) (UniProt Q61188); test: as above
[4] = biological target: embryonic ectoderm development (EED), endogenous mouse (mouse (endogenous in neonatal forebrain)) (UniProt Q921E6); test: as above

binding [1]	binding [2]	binding [3]	binding [4]	Substance
binds				embryonic ectoderm development (EED), endogenous mouse (from UniProt Q921E6 1-441)
binds				Suppressor of Zeste 12 homolog (SUZ12), endogenous mouse (from UniProt Q80U70 1-741)
binds				Enhancer of Zeste Homolog 2 (EZH2), endogenous mouse (from UniProt Q61188 1-746)
	binds	binds	binds	Receptor for Activated C-kinase 7 (RACK7), endogenous mouse (from UniProt A2A484)
